PubChem BioAssay AID743454 – Peter MacCallum Cancer Centre | 2014
Here is a random part of about 18,000 reagents tested. In the full data, 450 (2.5%) got an active call. 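Single biological run; no consistent viability z cut-off exists, so the class columns, not z-scores, define the calls.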 A number with no mark means an inactive call.

Aim: 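Search for knock-downs that restore vorinostat killing in resistant colon cancer cells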 (primary screen)
System: human HCT116-VR colon cancer cells, selected for vorinostat resistance
Knock-down reagent: siRNA pool against human genes, 40 nM siRNA pool
Duration: vorinostat for 24 h, read-out about 72 h after transfection
Treatment: vorinostat at 2.5 µM final
Read-out: 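Two measures, CellTiter-Fluor viability and luminescent caspase 3/7 activity, each as fold change against same-plate mock wells, mean of duplicates, then screen-wide robust z-score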
Direction: viability robust z-score: higher = more viable cells than screen typical; caspase robust z-score: higher = more caspase 3/7 activity than screen typical
Call rule: 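a knock-down is a hit when classed RV1 or RV2 for lowered viability, or CA1 or CA2 for caspase activation; those lethal without drug were dropped; hits were retested singly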

With knock-down of SLITRK2 (GeneID 84631), the record shows viability hit class no change; caspase hit class no change; viability robust z-score -0.44; caspase robust z-score -0.89.
NDRG2 (GeneID 57447) showed viability hit class no change; caspase hit class no change; viability robust z-score 0.38; caspase robust z-score 0.61.
After knock-down of FBXW10 (GeneID 10517), the screen gave viability hit class no change; caspase hit class no change; viability robust z-score -1.7; caspase robust z-score -0.28.
Silencing of PAX2 (GeneID 5076) came out at: viability hit class no change; caspase hit class no change; viability robust z-score 0.34; caspase robust z-score -0.5.
SYT9 (GeneID 143425) gave viability hit class no change; caspase hit class no change; viability robust z-score -0.78; caspase robust z-score -0.43.
With knock-down of WFDC3 (GeneID 140686), the screen gave viability hit class no change; caspase hit class no change; viability robust z-score -1; caspase robust z-score 0.16.
RBFOX1 (GeneID 54715) gave viability hit class no change; caspase hit class no change; viability robust z-score -0.34; caspase robust z-score 0.07.
For CABP1 (GeneID 9478), the entry reads viability hit class no change; caspase hit class no change; viability robust z-score -0.22; caspase robust z-score -0.66.
PWWP3A (GeneID 84939) scored viability hit class no change; caspase hit class no change; viability robust z-score 1.17; caspase robust z-score 0.69.
Silencing of H2AC14 (GeneID 8331) gave: viability hit class no change; caspase hit class no change; viability robust z-score 0.89; caspase robust z-score 0.01.
After knock-down of COX15 (GeneID 1355), the screen gave viability hit class no change; caspase hit class no change; viability robust z-score 1.28; caspase robust z-score -0.6.

Individual results from the entries so far.
PAX2 (GeneID 5076), viability robust z-score: 0.34
For “viability hit class”, H2AC14 (GeneID 8331) has no change

The listing continues.
Knock-down of SEZ6 (GeneID 124925) resulted in: viability hit class no change; caspase hit class no change; viability robust z-score -1.7; caspase robust z-score 5.11.
Depletion of VRK1 (GeneID 7443) resulted in: viability hit class no change; caspase hit class no change; viability robust z-score -0.57; caspase robust z-score 0.2.
For BPIFB1 (GeneID 92747) the deposit lists viability hit class no change; caspase hit class no change; viability robust z-score -1.23; caspase robust z-score -0.04.
After knock-down of CFAP221 (GeneID 200373), the screen gave viability hit class no change; caspase hit class no change; viability robust z-score 0.48; caspase robust z-score -0.8.
Knock-down of TAB1 (GeneID 10454) gave: viability hit class no change; caspase hit class no change; viability robust z-score 1.1; caspase robust z-score -0.43.
Silencing of TMEM88 (GeneID 92162) came out at: viability hit class no change; caspase hit class no change; viability robust z-score -0.04; caspase robust z-score 1.79.
COL12A1 (GeneID 1303) gave viability hit class no change; caspase hit class no change; viability robust z-score 1.7; caspase robust z-score -0.24.
Silencing of PLK1 (GeneID 5347) gave: viability hit class no change; caspase hit class no change; viability robust z-score -4.99; caspase robust z-score 0.36.
Knock-down of FAM111A (GeneID 63901) resulted in: viability hit class no change; caspase hit class no change; viability robust z-score -1.76; caspase robust z-score 1.1.
Knock-down of ENPP2 (GeneID 5168) resulted in: viability hit class no change; caspase hit class no change; viability robust z-score 0.54; caspase robust z-score -0.17.
